# Results: patent US11912664B2, “Determining small molecule-protein and protein-protein interactions” (President and Fellows of Harvard College, priority 2017, dated 2024)
# System: whole proteome from Jurkat and K562 cells
# Test: SIM-PAL conjugated peptide identification in whole cell proteome
SMILES,number of peptides found conjugated,conjugated peptides detected exclusively by that compound
"C#CCCC1(CCOc2cc(C(F)(F)F)nn2-c2ccc(S(N)(=O)=O)cc2)N=N1 [photo-celecoxib (5), 4-(5-(2-(3-(but-3-yn-1-yl)-3H-diazirin-3-yl)ethoxy)-3-(trifluoromethyl)-1H-pyrazol-1-yl)benzenesulfonamide]",93,
"C#CCCC1(CCOC(=O)NC2CCC(=O)NC2=O)N=N1 (stereo not shown) [photo-glutarimide 8, 2-(3-(but-3-yn-1-yl)-3H-diazirin-3-yl)ethyl (2,6-dioxopiperidin-3-yl)carbamate]",,nine
C#CCCC1(CCNC(=O)Cc2c(C)n(C(=O)c3ccc(Cl)cc3)c3ccc(OC)cc23)N=N1 [photo-indomethacin (6)],34,
"C#CCCC1(CCOc2ccc3cc([C@H](C)C(=O)O)ccc3c2)N=N1 [photo-naproxen (4), (S)-2-(6-(2-(3-(but-3-yn-1-yl)-3H-diazirin-3-yl)ethoxy)naphthalen-2-yl)propanoic acid]",85,
